# US20060111289A1, “Compositions and methods of using Alpha-fetoprotein growth inhibitory peptides” (Serometrix, LLC,, priority 2004, published 2006)
# Not every detail of the peptide structures is certain; ends, links or a residue may be inferred. Where a SMILES comes first, the peptide text is derived from it.
# What was measured:
# [1] = test system: cell cycle gene mRNA in MCF-7 cells; experiment: Quantitative RT-PCR of cell cycle gene mRNA in MCF-7 cells; format: cell-based, human
# Procedure: MCF-7 cell cultures grown in charcoal-stripped medium for 24 hours were seeded in 6-well plates and allowed to attach for 24 hours before treatment with 1×10^−7M of the cyclic, linear, or scrambled peptide, or a vehicle control for either 24 or 48 hours. Total RNA was isolated using TriReagent (Molecular Research Center Inc.) and quantified using the Genequant Pro (Ambersham Biosciences).
# Standard curves for each primer were prepared and RNA samples were reverse transcribed and screened for the genes of interest using the One Step RT-PCR kit (Qiagen Inc.) in the Roche Light Cycler. Each sample was run in duplicate, and the entire experiment was replicated resulting in two independent samples for each treatment.
# MCF-7 cell cultures were maintained in medium with charcoal-stripped bovine serum for 24 hours prior to seeding in 6-well plates. Seeding densities varied with treatment time and were aimed at obtaining 80% confluent cell cultures at the time of harvesting; after 24, 48, or 72 hours of treatment. RNA isolation was performed as above.
# MCF-7 cell cultures were maintained as above and seeded in 6-well plates at a low seeding density to obtain cell cultures that were 80% confluent at the end of the treatment. Cell cultures were treated with various concentrations of the cyclic peptide 24 hours after seeding and then every two days until harvesting the cells at day eight post-treatment RNA was isolated from each treatment.
# MCF-7 cells were seeded in DC5 medium into each well of two 6-well plates and allowed to attach for 24 hours at which point the seeding medium was exchanged for serum-free medium for 24 hours. After 24 hours in serum-free medium the cells were re-fed with DC5-stripped medium containing either the vehicle control (DMSO) or GIP (from 1×10^−14 to 1×10^−5 M). Cells were re-fed every 48 hours until they were harvested after eight days of treatment and RNA was isolated. The entire procedure was repeated resulting in two independent RNA isolations. The quantity and quality of RNA isolated from each eight-day exposure for each of the concentrations are shown below. The quantity and quality of RNA obtained from these exposures is sufficient to determine the RNA expression levels of numerous genes.
# MCF-7 cells were seeded at 1×10^6 cells per well in 6-well plates. The cells were incubated for 192 h in medium containing charcoal/dextran-treated BCS and test compounds described above in the proliferation assay. Peptide was administered each day for 8 days. Total RNA was isolated using the RNAqueous 4 PCR kit (Ambion Inc.) or Tri Reagent (Molecular Research Center, Inc.). The quality of the RNAs were assessed by electrophoresis on denaturing agarose gels and were quantified at 260 nm with the Genequant Pro (Amersham Biosciences).
# Details for the quantitative RT-PCR protocol were previously reported. Fasco et al., “Quantitative RNA-polymerase chain reaction-DNA analysis by capillary electrophoresis and laser-induced fluorescence” Anal. Biochem. 224:140-147 (1995). Briefly, RNA samples were reverse transcribed and amplified using the One Step RT-PCR kit (Qiagen Inc.) in the Roche Light Cycler. Total RNA was diluted to […] for all genes assayed except for 28S, which was diluted to 0.001 mg/ml. Diluted total RNA ([…]) was incubated with Qiagen RT-PCR master mix and was reverse transcribed for 30 min at 50° C. Following reverse transcription, samples were heated for 15 min at 95° C. to activate the HotStarTaq DNA polymerase and to simultaneously inactivate the reverse transcriptase. Gozgit et al., “Differential action of polycyclic aromatic hydrocarbons on endogenous estrogen-responsive genes and on a transfected estrogen-responsive reporter in MCF-7 cells” Toxicol. & Appl. Pharmacol. 196:58-67 (2004).
# Gene-specific primers ([…]) were used for the following: Cyclin D3, D1, CDK2, CDK4, CDK6, RB1, Ki67, Cyclin E1, Cyclin BI, and with B-Actin serving as housekeeping (control) gene. […]
# human platelets = experiment: Platelet aggregation in human platelet-rich plasma; format: cell-based; set-up: % Inhibition Of Activity: Platelet Agg. ADP / % Inhibition Of Activity: Platelet Agg. AA / % Inhibition Of Activity: Platelet Agg. Coll: concentration or dose not given beside the values
# Procedure: FIG. 9 presents exemplary data showing platelet aggregation modulation using 0.5 ml of normal human platelet-rich plasma (PRP) with varying amounts of P149 or P 149b using 2.5×10^6 platelets per reaction vessel.
# FIG. 10 presents exemplary data showing platelet aggregation activation by arachidonic acid (AA) and collagen using P149-treated platelet suspensions • Panel A1: AA alone; • Panel A2: AA followed by epinephine (EPI) and EPI alone using P149b; • Panel A3: CD62P flow cytometry fluorescence quenching by P149; • Panel B1: collagen alone and collagen+P149; • Panel B2: collagen alone; collagen+P149a showing aggregation diminution.
# GIP-derived peptide fragments and/or subfragments have been assayed for platelet aggregation by measuring light transmissions with an aggregometer using a stirred human platelet suspension. Kinlough-Rathbone et al., In: Platelet Aggregation in Measurements of Platelet Function, Eds. Harker L A, Zimmerman T S., Churchill Livingstone, London. pp. 64-87 (1983); and Whittle et al., “Specificity between the anti-aggregatory actions of prostacyclin, prostaglandin Eland D2 on platelets” In: Mechanisms of stimulus—response coupling in platelets, Eds. V. V. K., MacIntyre D E, Scully M F., New York and London: Plenum Press. pp. 109-115 (1985).
# The ability of GIP and its fragments were individually examined for aggregation inhibition using citrated human platelet-rich plasma (PRP). The peptides were freshly dissolved in 0.15 M NaCl containing 2.5×10^6 platelets/ml. […]
# blood vessel formation = settings: in vivo; cited from earlier work
# [2] = test system: human lymphocyte, monocyte, and thymocyte cell populations; experiment: Apoptosis by in vitro flow cytometry (gamma irradiation or dexamethasone); format: cell-based; settings: 10^−8 to 10^−10 M
# [3] = test system: p21, p27 and phosphorylated p27; experiment: Western blot analysis of cell cycle kinase inhibitors in MCF-7 lysates; format: cell-based, human; settings: 10^−6, 10^−9, 10^−12 M
smiles,measurement,setting,value
CC[C@H](C)[C@H](NC(=O)[C@H](CS)NC(=O)[C@H](CC(C)C)NC(=O)[C@H](Cc1c[nH]cn1)NC(=O)CNC(=O)[C@@H](NC(=O)[C@@H](NC(=O)[C@@H](NC(=O)[C@H](CC(=O)O)NC(=O)[C@H](C)NC(=O)[C@H](C)NC(=O)CNC(=O)[C@H](CCC(=O)O)NC(=O)CNC(=O)[C@H](CS)NC(=O)[C@H](C)NC(=O)[C@H](CC(C)C)NC(=O)[C@H](CC(C)C)NC(=O)[C@H](CCCCN)NC(=O)[C@H](CC(=O)O)NC(=O)[C@H](CCC(=O)O)NC(=O)[C@H](CO)NC(=O)[C@@H](N)CC(C)C)[C@@H](C)CC)[C@@H](C)CC)[C@@H](C)CC)C(=O)N[C@@H](CCCNC(=N)N)C(=O)N[C@@H](Cc1c[nH]cn1)C(=O)N[C@@H](CCC(=O)O)C(=O)N[C@@H](CCSC)C(=O)N[C@H](C(=O)N1CCC[C@H]1C(=O)N[C@H](C(=O)N[C@@H](CC(N)=O)C(=O)N1CCC[C@H]1C(=O)NCC(=O)N[C@H](C(=O)O)C(C)C)C(C)C)[C@@H](C)O [P149] (H-LSEDKLLACGEGAADIIIGHLCIRHEMTPVNPGV-OH),"mRNA expression of Cyclin B1, CDK2, Ki67, and Cyclin E1","[1]; 1e−8 to 1e−5 M, 24, 48, or 72 hours",few clear changes in gene expression
same,"mRNA levels of CDK2, CDK4, CDK6, Cyclin D1, CCND3, RB1","[1]; 1×10^−7 M, 24 or 48 hours",did not result in significant changes in mRNA levels
same,mRNA levels of CDK2,"[1]; 1×10^−7 M, 48 hours",appeared to decrease the mRNA levels of CDK2
same,"Cyclin D1 mRNA, fold increase",[1]; 8 days,1.7 fold
same,"Ki67, cdk2, cdk6, and Cyclin B1 mRNA levels",[1]; 8 days,no effect
same,"Rb1 mRNA, fold increase",[1]; 8 days,2.4 to 3.4 fold
same,"cdk4 mRNA, fold increase",[1]; 8 days,2.4 fold
same,"Cyclin-E1 mRNA, fold decreases","[1]; 8 days, peptide dose range 10^−5 to 10^−14 M",2.1 to 4.6 fold
same,Concentration of maximal inhibition of Cyclin E1 transcript expression,[1]; eight days,1 pM
same,Cyclin E1 transcript expression,"[1]; eight days, 1×10^−14 M",no effect
same,Inhibition of epinephrine-induced platelet aggregation,human platelets,not capable of inhibiting
same,Inhibition of ADP-induced platelet aggregation (FIG. 9),"human platelets; 0.5 ml PRP, 2.5×10^6 platelets per reaction vessel",inhibited all phases of the platelet aggregation
same,Inhibition of ADP-induced platelet aggregation,"human platelets; ADP 3 μM, P149 at 100-300 μM PRP",96%
same,% Inhibition Of Activity: Platelet Agg. ADP,human platelets; ADP-induced,90%
same,% Inhibition Of Activity: Platelet Agg. AA,human platelets; arachidonic acid-induced,100%
same,Inhibition of ADP-induced platelet aggregation,human platelets; at 10 mg peptide,inhibition did not occur
same,% Inhibition Of Activity: Platelet Agg. Coll,human platelets; collagen-induced,90%
same,Surface-expressed CD62 (P-selectin) fluorescent staining of ADP-activated platelets,human platelets; flow cytometry,titratable decline
same,Inhibition of arachidonic acid (AA)-induced platelet aggregation,human platelets; for several minutes until epinephrine was added,complete aggregation inhibition
same,Platelet Aggregation Inhibition (%),"human platelets; integrin α2β1 VLA-2 (GP1a), ligand collagen, platelet, sub-segments P149a, B and P149b, C",>90%
same,Platelet Aggregation Inhibition (%),"human platelets; integrin α5β1 VLA-5 (GP1c), ligand FBN, platelet, sub-segment P149b",>70%
same,Platelet Aggregation Inhibition (%),"human platelets; integrin α6β1 VLA-6, ligand LAM, platelet, sub-segments P149a, B and P149b",>80%
same,Platelet Aggregation Inhibition (%),"human platelets; integrin αIIbβ3a Major Platelet Receptor, ligands FBN, FIB, VTN, VWF, TSP, sub-segments P149a, B and P149b",>96%
same,Platelet Aggregation Inhibition (%),"human platelets; integrin αvβ3 VTN receptor, ligands FBN, FIB, FBG, COLL, VWF, TSP, sub-segments P149a and P149b",>70%
same,Inhibition of the collagen-induced secondary aggregation response,human platelets; peptide 100 μg,> 90%
same,"Inhibition (%) Of Platelet Aggregation, Adenosine Diphosphate (ADP) 2.5 μM",human platelets; peptide inhibitors 30 & 100 μM,80-90%
same,"Inhibition (%) Of Platelet Aggregation, Arachidonic Acid (AA) 0.3 mM",human platelets; peptide inhibitors 30 & 100 μM,100%
same,"Inhibition (%) Of Platelet Aggregation, Collagen (COLL) 2 μg/ml",human platelets; peptide inhibitors 30 & 100 μM,90%
same,"Inhibition (%) Of Platelet Aggregation, Epinephrine",human platelets; peptide inhibitors 30 & 100 μM,No effect
same,Blood vessel formation,blood vessel formation,inhibit blood vessel formation
same,Dexamethasone induced cell death,[2],did not block dexamethasone induced cell death
same,Apoptosis in irradiated lymphocyte or monocyte cell populations,[2]; gamma radiation,but not in lymphocyte or monocyte cell populations
same,Apoptosis in irradiated thymocytes,[2]; gamma radiation,enhanced apoptosis
same,Non-phosphorylated p27 (Western blot),[3],no effect on non-phosphorylated p27
same,Phosphorylated p27 (Western blot),[3],inhibited the formation of the phosphorylated form of p27
